{"source": "patent US10052392B2", "about": "“Low molecular weight polyethylene glycol drug conjugates having improved drug biological activity” (JENKEM TECHNOLOGY CO., LTD. (TIANJIN), priority 2013, dated 2018)", "assay": "Blood-brain barrier permeability, rat steady-state infusion model (Kp value)", "type": "in vivo", "conditions": "for blood-brain barrier permeability as fraction of dorzolamide: relative to dorzolamide", "note": "The name of at least one read-out is uncertain.", "data": [{"compound": "Single End Substituted Pentaethyleneglycol-dorzolamide [DZA-01]", "values": [{"measurement": "blood-brain barrier permeability as fraction of dorzolamide", "value": "1/55"}]}, {"compound": "Double End Substituted Hexaethyleneglycol-dorzolamide [DZA-02]", "values": [{"measurement": "blood-brain barrier permeability as fraction of dorzolamide", "value": "1/34"}]}, {"compound": "CCN[C@H]1C[C@H](C)S(=O)(=O)c2sc(S(=O)(=O)NCCOCC(COCCNS(=O)(=O)c3cc4c(s3)S(=O)(=O)[C@@H](C)C[C@@H]4NCC)(COCCNS(=O)(=O)c3cc4c(s3)S(=O)(=O)[C@@H](C)C[C@@H]4NCC)COCCNS(=O)(=O)c3cc4c(s3)S(=O)(=O)[C@@H](C)C[C@@H]4C)cc21", "note": "[DZA-06, Four-Branch Ethyleneglycol-dorzolamide Conjugate]", "values": [{"measurement": "blood-brain barrier permeability as fraction of dorzolamide", "value": "⅛"}]}, {"compound": "CN(C)CCc1c[nH]c2ccc(CS(=O)(=O)N(C)CCOCCOCCOCCOCCOCCN(C)S(=O)(=O)Cc3ccc4[nH]cc(CCN(C)C)c4c3)cc12", "note": "[SMQT-01, Double End-substituted Hexaethyleneglycol-sumatriptan]", "values": [{"measurement": "blood-brain barrier permeability as fraction of sumatriptan", "setting": "relative to sumatriptan", "value": "1/50"}]}]}
